According to PubChem BioAssay AID2685 (National Center for Advancing Translational Sciences (NCATS), 2010):
Some of the results follow. Further columns of the screen follow, without active or inactive calls. Most of these compounds were active or inconclusive in the main read-out, so they are no random draw. The note in brackets gives the kind of curve behind each potency; many fits are weak.

Assay: qHTS Assay for Lipid Storage Modulators in Drosophila S3 Cells;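 on cell number change: cells counted by Cell Tracker Red CMTPX staining in the red channel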
Conditions: BODIPY lipid droplet fluorescence, 18-24 h; for cell number change: measured here: cell count max response, cells fed with added oleic acid
Method in brief: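 Drosophila S3 cells got compounds at several concentrations plus oleic acid (400 uM solution). Laser-scanning cytometry with 488 nm excitation read lipid droplets at 500-530 nm and cells at 575-640 nm. Percent activity was relative to 20 uM Triacsin C.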

[1] = measured here: cell number channel AC50, cells fed with added oleic acid
[2] = measured here: lipid fluorescence (Fed channel) AC50, cells fed with added oleic acid

Row | SMILES | cell number change | AC50 [1] | AC50 [2]
1 | O=C(O)c1ccc(Cl)c(S(=O)(=O)Nc2ccccc2Cc2ccccc2)c1 | -38.1% | 14.6 µM [falling, partial curve, poor fit] | 
2 | Cc1cc(C)c(S(=O)(=O)Nc2cc(C)on2)c(C)c1 | 31.7% | 7.31 µM [rising, partial curve, poor fit] | 0.651 µM [rising, partial curve, poor fit]
3 | COc1ccc(OC)c(C2c3c(oc4ccccc4c3=O)C(=O)N2CCCN(C)C)c1 (stereo not given) | -5.64% | 6.51 µM [falling, single point] | 5.17 µM [falling, single point]
4 | COc1ccc(-c2csc(N3C(=N)SCC3=O)n2)cc1 | 36.2% | 14.6 µM [rising, partial curve, poor fit] | 
5 | Cc1ccc(C(=O)NC(=S)NCc2cccnc2)c(C)c1 | 16.3% |  | 5.8 µM [rising, partial curve]
6 | Cc1cccc(NC(=O)CN2C(=O)COc3ccc(Cl)cc32)c1C | 12.6% |  | 0.461 µM [rising, single point]
7 | COCCNC(=O)CSc1nc2nc(C)cc(C)n2n1 | 11.2% |  | 0.0731 µM [falling, full curve, poor fit]
8 | COc1cc(C=C(c2nc3ccccc3s2)c2nc3ccccc3s2)cc(OC)c1O | 35.9% | 5.17 µM [rising, partial curve] | 16.4 µM [rising, partial curve]
9 | Cn1c(=O)[nH]c(=O)c2c1nc(SCC(O)CO)n2CCCc1ccccc1 (stereo not given) | -14.8% |  | 0.259 µM [falling, partial curve, poor fit]
10 | CC(C)Cn1c(CCCNC(=O)c2ccc(F)cc2)nc2ccccc21 | 26.4% |  | 
11 | COc1ccccc1NC(=O)Nc1nc(CC(=O)NC2CCCC2)cs1 | 79.8% | 8.2 µM [rising, partial curve] | 
12 | S=C(NCCc1ccccc1)NCC(c1ccco1)N1CCCCC1 (stereo not given) | -47.8% |  | 
13 | COc1ccccc1NC(=O)C(=O)Nc1ccc2c(c1)N(C(=O)C1CC1)CCC2 |  | 0.58 µM [rising, full curve, poor fit] | 
14 | COC(=O)C1=C(C)NC(=O)C1(Nc1nccs1)C(F)(F)F (stereo not given) | -4.38% |  | 0.366 µM [falling, partial curve, poor fit]
15 | COc1ccc(N2C(=O)N3[C@H](c4cccc(C)c4)[C@@H]4C(=O)N(Cc5ccccc5)C(=O)[C@@H]4[C@]3(Cc3ccccc3)C2=O)cc1 | 43.7% | 14.6 µM [rising, partial curve, poor fit] | 0.517 µM [rising, single point]
16 | Nn1c(=O)[nH]c2ccccc2c1=O |  | 0.146 µM [rising, full curve] | 0.231 µM [rising, full curve]
17 | O=C1C(=O)N(CCN2CCOCC2)C(c2ccncc2)/C1=C(/O)c1ccc2c(c1)OCO2 (stereo not given) | 16% |  | 0.206 µM [rising, full curve, poor fit]
18 | COC(=O)c1cc(N=C(N)N=C(N)N)cc(C(=O)OC)c1 | 17.2% |  | 32.6 µM [rising, single point]
19 | Cc1[nH]nc2c1C1(CCOC1C)C(C#N)=C(N)O2 (stereo not given) | -6.62% |  | 0.411 µM [rising, single point]

Row | SMILES | cell number change | AC50 [1] | AC50 [2]
20 | Cc1ccc(-c2csc3nc4ccc(C(=O)NCCO)cc4c(=O)n23)cc1 | -0.193% |  | 29.1 µM [falling, single point]
21 | COc1cccc(NC2=Nc3cccc4cccc2c34)c1 | 10.9% |  | 0.00517 µM [rising, full curve, poor fit]
22 | O=C(CCl)c1ccc2c(c1)CCN2C(=O)C1CC1 | -58.9% | 20.6 µM [falling, single point] | 29.1 µM [falling, single point]
23 | CC(NC(=O)Nc1nnc(C(F)(F)F)s1)(C(F)(F)F)C(F)(F)F | -61.1% | 16.4 µM [falling, partial curve] | 2.59 µM [falling, full curve]
24 | CC(C)CC1NC(=O)N(CC(=O)NC2CCCc3ccccc32)C1=O (stereo not given) | -1.7% |  | 
25 | Cc1ccc(N=N/C(=C\O)C(=O)c2ccncc2)cc1 | 17% | 0.731 µM [rising, partial curve] | 3.26 µM [rising, partial curve]
26 | Cc1ccccc1OCC(=O)OCC(=O)c1c[nH]c2ccccc12 | 0.501% |  | 18.4 µM [rising, partial curve, poor fit]
27 | Cc1ccc(S(=O)(=O)N(CC(=O)N2CCOCC2)C2CCCCC2)cc1 |  | 0.731 µM [falling, partial curve, poor fit] | 0.082 µM [falling, full curve, poor fit]
28 | CCOC(=O)c1sc(-n2[nH]c(C)cc2=O)nc1C | 5.92% |  | 0.00651 µM [falling, full curve, poor fit]
29 | CN(Cc1ccco1)c1ncnc2ccc(-c3ccoc3)cc12 |  |  | 2.31 µM [falling, single point]
30 | CCC(=O)Nc1cccc(NC(=S)NC(=O)c2ccccc2)c1 | 78.1% | 18.4 µM [rising, single point] | 6.51 µM [rising, single point]
31 | COC(=O)CCc1cccc(CCC(=O)OC)c1 | 17.1% |  | 29.1 µM [rising, partial curve, poor fit]
32 | Cc1cc(C)nc(NC(=O)c2ccc(Cl)c(Cl)c2)n1 |  |  | 2.06 µM [rising, partial curve]
33 | O=C(Oc1ccccc1)c1cccnc1Oc1ccccc1 | 10.4% | 0.461 µM [falling, full curve] | 0.461 µM [falling, full curve, poor fit]
34 | Cc1ccc(NC(=S)NC(=O)c2ccc(F)cc2)cc1S(=O)(=O)Nc1cccc(Cl)c1 | 0.888% |  | 23.1 µM [falling, partial curve]
35 | COc1ccc2[nH]c(=O)c(CN(CCN3CCCC3)C(=O)Nc3ccccc3Cl)cc2c1 |  | 1.3 µM [rising, full curve] | 
36 | Cc1cccc(OCc2nnc(SCC(=O)N3c4ccccc4Sc4ccc(Cl)cc43)o2)c1 | -1.63% |  | 6.51 µM [rising, single point]
37 | CCC(CC)NC(=O)c1n[nH]c(=O)c2ccccc12 | -12.2% |  | 
38 | CCc1c(C2(O)CCCCC2)[nH]c2cc(C(F)(F)F)ccc12 | -36.6% | 14.6 µM [falling, single point] | 

An excerpt from above in order of formula weight, rising:
Row | SMILES | cell number change | AC50 [1] | AC50 [2]
33 | O=C(Oc1ccccc1)c1cccnc1Oc1ccccc1 | 10.4% | 0.461 µM [falling, full curve] | 0.461 µM [falling, full curve, poor fit]
6 | Cc1cccc(NC(=O)CN2C(=O)COc3ccc(Cl)cc32)c1C | 12.6% |  | 0.461 µM [rising, single point]
8 | COc1cc(C=C(c2nc3ccccc3s2)c2nc3ccccc3s2)cc(OC)c1O | 35.9% | 5.17 µM [rising, partial curve] | 16.4 µM [rising, partial curve]

Some of the entries above, reformatted:
Row	SMILES	cell number change	AC50 [1]	AC50 [2]
27	Cc1ccc(S(=O)(=O)N(CC(=O)N2CCOCC2)C2CCCCC2)cc1		0.731 µM [falling, partial curve, poor fit]	0.082 µM [falling, full curve, poor fit]
35	COc1ccc2[nH]c(=O)c(CN(CCN3CCCC3)C(=O)Nc3ccccc3Cl)cc2c1		1.3 µM [rising, full curve]	

Carrying on.

Row | SMILES | cell number change | AC50 [1] | AC50 [2]
39 | CC(C)CC(=O)N1CCN(S(=O)(=O)c2ccc(C3CCCCC3)cc2)CC1 | -17.7% | 0.461 µM [falling, full curve, poor fit] | 0.206 µM [falling, full curve, poor fit]
40 | Cc1cccc(N2CCN(Cc3nc(C4CC4)no3)CC2)n1 | 17% |  | 0.58 µM [falling, full curve, poor fit]
41 | Cc1ccc(N2C(=O)c3cccc(Oc4ccc(Cl)cc4)c3C2=O)c(C)c1 | 9.16% |  | 0.58 µM [falling, partial curve]
42 | COc1ccc(C=C(c2ccc(OC)cc2)c2ccc(OC)cc2)cc1 | 72.8% | 8.2 µM [rising, partial curve] | 2.06 µM [rising, partial curve]
43 | COc1ccc(OCC(O)Cn2c(N)nc3c2c(=O)[nH]c(=O)n3C)cc1 (stereo not given) | 5.82% | 6.51 µM [rising, single point] | 6.51 µM [rising, single point]
44 | C=CCc1c(C)nc(C)nc1N/N=C/c1ccc(N(C)C)cc1 |  |  | 0.58 µM [falling, single point]
45 | Cc1cc(C)c(S(=O)(=O)c2c(C)cccc2C)c(OCC(C)C)n1 | -90.1% | 18.4 µM [falling, partial curve] | 20.6 µM [falling, partial curve]
46 | CC(=O)N(c1ccc2oc(=O)sc2c1)S(=O)(=O)c1cccs1 | -9.06% |  | 
47 | Cc1ccc(NC(=O)N2CCc3ccccc3C2)cc1 |  |  | 1.84 µM [rising, partial curve]
48 | O=C(c1ccc(-c2cccc(C(F)(F)F)c2)o1)N1CCN(c2ccccc2O)CC1 | -53.7% | 29.1 µM [falling, single point] | 18.4 µM [falling, partial curve]
49 | NNC(=O)/C(=N/Nc1ccccc1)S(=O)(=O)c1ccc(Cl)cc1 | 26.5% |  | 8.2 µM [rising, partial curve]
50 | CCN(C1CCS(=O)(=O)C1)S(=O)(=O)c1ccc(Cl)s1 (stereo not given) | -12.9% |  | 
51 | O=S(=O)(c1cccc(NC(=S)Nc2ccc(Br)cc2Cl)c1)N1CCOCC1 | 46.2% | 29.1 µM [rising, single point] | 29.1 µM [rising, single point]
52 | CCOc1cc(N2CCOCC2)c(OCC)cc1NC(=O)C1CCCC1 | 58.7% | 16.4 µM [rising, single point] | 
53 | Cc1ccc(N(Cc2cc(=O)[nH]c3ccccc23)C(=O)C(C)C)cc1 | -7.58% |  | 
54 | CC(=O)OCC1(C)CN(c2ccccc2)N(C(=O)c2ccc(C(C)(C)C)cc2)C1=O (stereo not given) | -13.1% |  | 
55 | COc1ccc(-c2ccc(/C=N/NC(=O)c3cccnc3)o2)c([N+](=O)[O-])c1 |  |  | 6.51 µM [falling, single point]
56 | COc1ccc(/C=N/Nc2ccccn2)cc1OC | 18.8% | 2.31 µM [rising, single point] | 3.66 µM [rising, full curve]
57 | CCC(C)(C)NC(=O)CN(C(=O)CCC(=O)Nc1ccccn1)c1ccc(F)c(Cl)c1 | 56.8% | 10.3 µM [rising, partial curve] | 
